Data taken from patent publication US20230242605A1.
Results are given in words; binding and its absence hold for the method and conditions named. Binding seen in cells or lysates may run through a third protein. Some entries that bind do so weakly or less than the wild type. Tags and fused reporters may be left off the sequences shown.

Protein sequences, listed by entry. Tags and fused reporters are not part of them. Lines headed by an entry give the natural chain unless they say otherwise; changes in a name come on top. Chains listed by the source or under a name are the forms on record and can include a tag or linker.
HA-tagged BMPR2-E376K (bone morphogenetic protein type 2 receptor, amino acid 376 mutated from glutamic acid to lysine) (Q13873, form named): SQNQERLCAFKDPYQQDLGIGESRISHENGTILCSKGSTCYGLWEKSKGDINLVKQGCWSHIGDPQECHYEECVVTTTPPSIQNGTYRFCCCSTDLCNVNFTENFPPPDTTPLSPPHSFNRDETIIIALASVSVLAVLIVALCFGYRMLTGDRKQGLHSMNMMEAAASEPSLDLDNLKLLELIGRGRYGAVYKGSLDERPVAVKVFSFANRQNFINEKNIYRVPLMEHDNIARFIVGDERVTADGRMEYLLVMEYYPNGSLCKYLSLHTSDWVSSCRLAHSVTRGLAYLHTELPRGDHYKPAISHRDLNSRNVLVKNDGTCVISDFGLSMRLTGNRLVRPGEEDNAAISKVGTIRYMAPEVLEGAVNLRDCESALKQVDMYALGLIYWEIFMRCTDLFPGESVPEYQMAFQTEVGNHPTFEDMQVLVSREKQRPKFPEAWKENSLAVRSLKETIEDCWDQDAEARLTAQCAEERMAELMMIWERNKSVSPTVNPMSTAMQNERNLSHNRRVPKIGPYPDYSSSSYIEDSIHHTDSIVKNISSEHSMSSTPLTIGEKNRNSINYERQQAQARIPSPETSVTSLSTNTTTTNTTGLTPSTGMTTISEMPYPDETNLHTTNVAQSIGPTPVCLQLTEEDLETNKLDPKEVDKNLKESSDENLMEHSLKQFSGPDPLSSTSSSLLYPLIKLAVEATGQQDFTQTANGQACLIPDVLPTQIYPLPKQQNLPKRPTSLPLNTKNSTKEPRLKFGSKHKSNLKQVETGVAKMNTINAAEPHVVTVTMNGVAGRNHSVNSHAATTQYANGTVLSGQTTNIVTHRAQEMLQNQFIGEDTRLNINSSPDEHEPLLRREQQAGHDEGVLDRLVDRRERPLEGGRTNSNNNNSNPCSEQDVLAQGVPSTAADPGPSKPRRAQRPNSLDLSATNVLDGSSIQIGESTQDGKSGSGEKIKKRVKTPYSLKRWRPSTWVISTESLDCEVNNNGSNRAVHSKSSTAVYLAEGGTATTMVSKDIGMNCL

What was measured:
[1] = molecular target: T1, V5-tagged wild-type ACVR1 (activin A type I receptor) (UniProt Q04771); test: co-immunoprecipitation, western blot
T1 sequence (looked up): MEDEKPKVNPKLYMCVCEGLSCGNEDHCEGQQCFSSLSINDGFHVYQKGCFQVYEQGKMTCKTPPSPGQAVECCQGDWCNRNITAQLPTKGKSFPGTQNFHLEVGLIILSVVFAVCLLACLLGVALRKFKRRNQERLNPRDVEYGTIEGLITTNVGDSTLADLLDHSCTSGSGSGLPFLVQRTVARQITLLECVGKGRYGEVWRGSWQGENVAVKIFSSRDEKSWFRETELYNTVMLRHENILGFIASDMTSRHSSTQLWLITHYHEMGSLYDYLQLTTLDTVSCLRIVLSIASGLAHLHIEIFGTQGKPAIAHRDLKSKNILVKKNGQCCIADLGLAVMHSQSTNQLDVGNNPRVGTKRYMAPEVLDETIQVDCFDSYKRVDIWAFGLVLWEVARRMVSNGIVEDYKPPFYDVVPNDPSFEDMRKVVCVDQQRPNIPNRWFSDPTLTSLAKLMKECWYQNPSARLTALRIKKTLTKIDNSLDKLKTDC

[2] = molecular target: T1, V5-tagged wild-type ACVR1 (activin A type I receptor); test: co-immunoprecipitation (FIG. 3a), no BMP ligand
[3] = molecular target: T1, V5-tagged wild-type ACVR1 (activin A type I receptor); test: co-immunoprecipitation (anti-HA agarose) from transfected HEK293T lysates, no BMP ligand

Measured: binding

HA-tagged BMPR2-E376K (bone morphogenetic protein type 2 receptor, amino acid 376 mutated from glutamic acid to lysine) (from UniProt Q13873 27-1038)
binds: all assays above
